# From the supplement of paper PMC9135407
# Where “and” joins values, the source holds several entries; their conditions need not be identical. Equal entries are not always repeated. Structures can show the parent of a compound that is named as a salt. ± gives the standard deviation of the averaged measurements. Some of the results follow. Part of the spread comes from offsets between plates or batches.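 Primary human stellate myofibroblasts activated in culture; inactivation shown by regained lipid droplets. Readout: fraction of Hoechst-counted cells exceeding a per-plate Bodipy threshold, duplicate wells, each plate with DMSO negative and nortriptyline positive controls. Hits: control-normalized score beyond the plate's top-tenth-percentile nortriptyline wells, or among its three best wells. Final well concentrations unstated.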
# System: primary human hepatic stellate cells (donor 1)
# Assay: percent Bodipy-positive cells; higher = more lipid droplet accumulation
# Conditions: 48 h
# [1] = library stock concentration: 1 mM
# [2] = library stock concentration: 3.33 mM
# [3] = library stock concentration: 10 mM
# [4] = library stock concentration: 2 mM
# [5] = library stock concentration: 400 uM
# [6] = library stock concentration: 5.2 mM
# [7] = library stock concentration: 80 uM
smiles,measurement,setting,value
CC(C)(Oc1ccc(CCNC(=O)c2ccc(Cl)cc2)cc1)C(=O)O [bezafibrate],percent Bodipy-positive cells,library stock concentration: 13.8 mM,13.3 ± 11%
CC(C)(Oc1ccc(CCNC(=O)c2ccc(Cl)cc2)cc1)C(=O)O [Bezafibrate],percent Bodipy-positive cells,,30.6 ± 7.7%
same,percent Bodipy-positive cells,[1],10.5 ± 3.2%
same,percent Bodipy-positive cells,[2],10.4 ± 4.3%
same,percent Bodipy-positive cells,[3],26.4% and 30.4% and 27.1%
CCCCCCCCCCCCCC(=O)N[C@H](C)[C@@H](O)c1ccccc1 [D-erythro-MAPP],percent Bodipy-positive cells,[1],10.4% and 5.97%
"COc1cc2c(Nc3ccc(Br)cc3F)ncnc2cc1OCC1CCN(C)CC1 [Vandetanib  (ZD6474, Zactima) (2 mM)]",percent Bodipy-positive cells,[4],98.41 ± 0.24%
"COc1cc2c(Nc3ccc(Br)cc3F)ncnc2cc1OCC1CCN(C)CC1 [Vandetanib  (ZD6474, Zactima) (0.4 mM)]",percent Bodipy-positive cells,[5],80.6 ± 8.3%
CC1=C(/C=C/C(C)=C/C=C/C(C)=C/C=C/C=C(C)/C=C/C=C(C)/C=C/C2=C(C)CCCC2(C)C)C(C)(C)CCC1 [Beta Carotene],percent Bodipy-positive cells,[2],6.91 ± 0.34%
same,percent Bodipy-positive cells,[3],12.1 ± 2.3%
O=S(=O)(c1cccc2c(Cl)cccc12)N1CCCNCC1,percent Bodipy-positive cells,[3],84.9 ± 7.5%
COC(=O)CCCCCCC1C(O)CC(O)C1CCC(O)C#Cc1ccccc1F (centres undefined),percent Bodipy-positive cells,[1],8.3 ± 1.4%
CC(C(=O)O)c1ccc(CC2CCCC2=O)cc1 (centres undefined),percent Bodipy-positive cells,[3],11 ± 0.65%
CC(C(=O)O)c1ccc(CC2CCCC2=O)cc1 (centres undefined) [loxoprofen],percent Bodipy-positive cells,[3],23.7 ± 2.9%
CC[C@H]1OC(=O)[C@H](C)[C@@H](O[C@H]2C[C@@](C)(OC)[C@@H](O)[C@H](C)O2)[C@H](C)[C@@H](O[C@@H]2O[C@H](C)C[C@H](N(C)C)[C@H]2O)[C@](C)(O)C[C@@H](C)C(=O)[C@H](C)[C@@H](O)[C@]1(C)O [Erythromycin],percent Bodipy-positive cells,,33.2 ± 1.3%
same,percent Bodipy-positive cells,[2],11.3 ± 1.6%
same,percent Bodipy-positive cells,[3],15.3% and 4.45%
CC[C@H]1OC(=O)[C@H](C)[C@@H](O[C@H]2C[C@@](C)(OC)[C@@H](O)[C@H](C)O2)[C@H](C)[C@@H](O[C@@H]2O[C@H](C)C[C@H](N(C)C)[C@H]2O)[C@](C)(O)C[C@@H](C)C(=O)[C@H](C)[C@@H](O)[C@]1(C)O,percent Bodipy-positive cells,[3],55.2 ± 2%
CCOC(=O)N1CCC(=C2c3ccc(Cl)cc3CCc3cccnc32)CC1 [Loratadine],percent Bodipy-positive cells,[2],9.1 ± 0.79%
same,percent Bodipy-positive cells,[6],12.8% and 12%
same,percent Bodipy-positive cells,[3],21.6% and 40%
CCOC(=O)N1CCC(=C2c3ccc(Cl)cc3CCc3cccnc32)CC1 [Loratidine],percent Bodipy-positive cells,[3],14.9 ± 0.22%
CCOC(=O)N1CCC(=C2c3ccc(Cl)cc3CCc3cccnc32)CC1,percent Bodipy-positive cells,[3],20.2 ± 10%
O=C(NOCC1CC1)c1ccc(F)c(F)c1Nc1ccc(I)cc1Cl,percent Bodipy-positive cells,[7],8.65 ± 0.82%
same,percent Bodipy-positive cells,[5],8.58% and 11.5%
same,percent Bodipy-positive cells,[4],6.01% and 22.2%
same,percent Bodipy-positive cells,[2],13.7 ± 10%
Nc1nc(F)nc2c1ncn2[C@@H]1O[C@H](COP(=O)(O)O)[C@@H](O)[C@@H]1O [Fludarabine Phosphate],percent Bodipy-positive cells,[2],64.1 ± 10%
same,percent Bodipy-positive cells,[3],83 ± 5.1%
COc1[nH]c2ccc(F)cc2c1C(=O)OCC1CCN(CCNS(C)(=O)=O)CC1.NS(=O)(=O)O,percent Bodipy-positive cells,[3],36.6 ± 8.4%
CC1(C)CCC(c2ccc(Cl)cc2)=C(CN2CCN(c3ccc(C(=O)NS(=O)(=O)c4ccc(N[C@H](CCN5CCOCC5)CSc5ccccc5)c(S(=O)(=O)C(F)(F)F)c4)cc3)CC2)C1 [ABT-263 (Navitoclax)],percent Bodipy-positive cells,[2],7 ± 0.17%
same,percent Bodipy-positive cells,[3],11.3 ± 1.9%
O=C(COc1ccc(C(=O)c2ccccc2)cc1)NC1CCN(Cc2ccccc2)CC1 [AdipoRon],percent Bodipy-positive cells,[2],39.2 ± 1.6%
same,percent Bodipy-positive cells,[3],61.3 ± 12%
NC(=O)c1ccccc1O [Salicylamide],percent Bodipy-positive cells,[3],15.2 ± 1%
COc1ccc(CC(C)NCC(O)c2ccc(O)c(NC=O)c2)cc1 (centres undefined),percent Bodipy-positive cells,[3],13.7 ± 0.19%
COc1ccc(CC(C)NCC(O)c2ccc(O)c(NC=O)c2)cc1 (centres undefined) [Formoterol Hemifumarate],percent Bodipy-positive cells,[2],12.3 ± 2.5%
same,percent Bodipy-positive cells,[3],35.2 ± 14%
COc1ccc(CC(C)NCC(O)c2ccc(O)c(NC=O)c2)cc1 (centres undefined) [Formoterol],percent Bodipy-positive cells,[3],68.6 ± 16%
COc1ccc(CC(C)NCC(O)c2ccc(O)c(NC=O)c2)cc1 (centres undefined) [Formoterol hemifumarate],percent Bodipy-positive cells,[3],11.7 ± 8.1%
O=C(OCCN1CCOCC1)C1(c2ccccc2)CCCCC1 [PRE-084 hydrochloride],percent Bodipy-positive cells,[3],7.621 ± 0.069%
O=C(OCCN1CCOCC1)C1(c2ccccc2)CCCCC1,percent Bodipy-positive cells,[3],44.4 ± 15%
"Cc1ccc2c(c1)C(=O)C1(O)CCN(c3ccccc3)C1=N2 (single isomer, unassigned; (-)) [(-)-Blebbistatin]",percent Bodipy-positive cells,[7],13.7 ± 6.8%
same,percent Bodipy-positive cells,[5],12 ± 2.8%
same,percent Bodipy-positive cells,[1],8.47 ± 0.44%
same,percent Bodipy-positive cells,[4],9.18 ± 2.3%
same,percent Bodipy-positive cells,[2],26.9 ± 3.3%
same,percent Bodipy-positive cells,[3],43.2 ± 28%
CC(C)C[C@H](NC(=O)[C@H](Cc1ccccc1)NC(=O)c1cnccn1)B(O)O [Bortezomib (PS-341)],percent Bodipy-positive cells,[2],81.8 ± 1.3%
same,percent Bodipy-positive cells,[3],92.1 ± 2.6%
CC(C)C[C@H](NC(=O)[C@H](Cc1ccccc1)NC(=O)c1cnccn1)B(O)O [Bortezomib],percent Bodipy-positive cells,[6],84 ± 6.4%
CS(=O)(=O)c1ccc(C(=O)Nc2ccc(Cl)c(-c3ccccn3)c2)c(Cl)c1 [Vismodegib (GDC-0449)],percent Bodipy-positive cells,[2],9.85 ± 0.16%
same,percent Bodipy-positive cells,[3],17.1 ± 6.5%
O=C1C(c2c(O)[nH]c3ccccc23)=Nc2ccccc21,percent Bodipy-positive cells,[3],35.7 ± 1.5%
O=C1C(c2c(O)[nH]c3ccccc23)=Nc2ccccc21 [Indirubin],percent Bodipy-positive cells,[2],7.18 ± 2%
same,percent Bodipy-positive cells,[3],30.8 ± 9.4%
CNc1nc(-c2ccc3c(N)n[nH]c3c2)cc(N2C[C@@H](C(=O)NC3CCCCC3)CC[C@H]2C)n1,percent Bodipy-positive cells,[7],11.4 ± 0.88%
same,percent Bodipy-positive cells,[5],7.78 ± 2.9%
same,percent Bodipy-positive cells,[4],10.39 ± 0.052%
same,percent Bodipy-positive cells,[2],15.1 ± 10%
same,percent Bodipy-positive cells,[3],79% and 62%
CCCCCCCC/C=C\CCCCCCCC(=O)c1nc2ncccc2o1 [Oleoyl Oxazolopyridine],percent Bodipy-positive cells,[1],6.41 ± 1.1%
COc1ccc(-c2coc3cc(O)ccc3c2=O)cc1 [Formononetin],percent Bodipy-positive cells,[2],8.92 ± 3.9%
CN1CCN(S(=O)(=O)c2ccc(-c3cnc(N)c(C(=O)Nc4cccnc4)n3)cc2)CC1,percent Bodipy-positive cells,[2],91.9 ± 2.6%
Nc1ccc2ncnc(NCCc3ccc(Oc4ccccc4)cc3)c2c1,percent Bodipy-positive cells,[7],12.92 ± 0.037%
same,percent Bodipy-positive cells,[5],17.6 ± 1.4%
same,percent Bodipy-positive cells,[4],14.5 ± 3%
same,percent Bodipy-positive cells,[2],10.7 ± 1%
Oc1c(Br)cc(Br)c2cccnc12 [Broxyquinoline],percent Bodipy-positive cells,[2],9.97 ± 0.6%
same,percent Bodipy-positive cells,[3],21.9% and 14.7%
COc1cc2c(cc1OC)-c1cc3nc4ccccc4nc3n1C(C)(C)C2,percent Bodipy-positive cells,[3],58 ± 9%
CCC(=O)O[C@H]1CC[C@H]2[C@@H]3CCc4cc(O)ccc4[C@H]3CC[C@]12C [Estradiol propionate],percent Bodipy-positive cells,library stock concentration: 6.1 mM,65.1 ± 5.8%
same,percent Bodipy-positive cells,[3],71.9 ± 2.5%
O=C(Nc1cc(C(F)(F)F)cc(C(F)(F)F)c1)c1cc(Cl)ccc1O,percent Bodipy-positive cells,[2],67.2 ± 5.5%
O=C(Nc1cc(C(F)(F)F)cc(C(F)(F)F)c1)c1cc(Cl)ccc1O [IKK-2 Inhibitor V],percent Bodipy-positive cells,[2],13.8 ± 3.8%
CN(C)[C@@H]1C(O)=C(C(N)=O)C(=O)[C@@]2(O)C(O)=C3C(=O)c4c(O)cccc4[C@@](C)(O)[C@H]3C[C@@H]12,percent Bodipy-positive cells,[3],33.2 ± 2.3%
CN(C)[C@@H]1C(O)=C(C(N)=O)C(=O)[C@@]2(O)C(O)=C3C(=O)c4c(O)cccc4[C@@](C)(O)[C@H]3C[C@@H]12 [Tetracycline],percent Bodipy-positive cells,library stock concentration: 4.5 mM,7.2 ± 1.5%
CN(C)[C@@H]1C(O)=C(C(N)=O)C(=O)[C@@]2(O)C(O)=C3C(=O)c4c(O)cccc4[C@@](C)(O)[C@H]3C[C@@H]12 [Tetracycline hydrochloride],percent Bodipy-positive cells,,22.9 ± 7.7%
same,percent Bodipy-positive cells,[3],16.2 ± 2.8%

# Reprinted at random: 2 records from the list
smiles,measurement,setting,value
"Cc1ccc2c(c1)C(=O)C1(O)CCN(c3ccccc3)C1=N2 (single isomer, unassigned; (-)) [(-)-Blebbistatin]",percent Bodipy-positive cells,[7],13.7 ± 6.8%
COc1ccc(CC(C)NCC(O)c2ccc(O)c(NC=O)c2)cc1 (centres undefined) [Formoterol Hemifumarate],percent Bodipy-positive cells,[2],12.3 ± 2.5%
